In article PMC8866402:
No constants are given. Whether binding was seen depends on the method and setting. Binding calls can cover weak binding; strength is not graded here. Where a sequence is shown, tags or fusion partners need not be part of it. For part of these data: Binding seen in cells or lysates may run through a third protein. Blank lines part the entries; values can stand above or below the substance they belong to.

Key:
[1] = molecular target: T1, recombinant human Flag-tagged fortilin (human) (UniProt P13693); experiment: co-IP; in vitro mixture of recombinant Flag-fortilin, TGF-β1, Flag-p53 and His6-NQO2 in Buffer A (10 mM Tris pH 7.4, 100 mM NaCl, 0.01% NP-40); rabbit anti-fortilin mAb or rabbit IgG, 2 h room temperature; anti-rabbit IgG Dynabeads; four washes in Buffer B (0.3% NP-40); western blot; both purified
T1 sequence: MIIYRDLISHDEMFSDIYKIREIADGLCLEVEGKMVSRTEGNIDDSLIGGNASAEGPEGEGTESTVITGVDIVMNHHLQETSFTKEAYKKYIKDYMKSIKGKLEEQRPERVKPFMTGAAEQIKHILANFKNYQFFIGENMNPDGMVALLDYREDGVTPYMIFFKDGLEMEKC

[2] = molecular target: T2, C-His6-fortilin (human) (UniProt P13693); experiment: SPR; Biacore 3000, 25 °C, HBS-EPS (0.01 M HEPES, 0.5 M NaCl, 3 mM EDTA, 0.005% Tween 20, pH 7.4), 20 μL/min; forms of rh-fortilin amine-coupled to a CM5 chip; rh-TGF-β1 injected (0 to 200 nM; 100 nM for scouting); both purified
T2 sequence: T1 sequence

[3] = molecular target: T3, strep-tag-fortilin (recombinant human fortilin with an N-terminal Strep-tag II) (human) (UniProt P13693); experiment: as above
T3 sequence: T1 sequence

[4] = molecular target: T4, N-His6-fortilin (human) (UniProt P13693); experiment: SPR; co-binding/inhibition assay: 100 nM rh-TGF-β1 pre-incubated with increasing concentrations of TGFβRII-Fc (or with Fc) and injected over the fortilin-coupled chip; Fc injected alone as control; Biacore 3000, 25 °C, HBS-EPS; both purified
T4 sequence: T1 sequence

[5] = molecular target: T1, recombinant human Flag-tagged fortilin (human); experiment: co-IP; same procedure with recombinant Flag-fortilin, TGF-β2 or TGF-β3 and His6-NQO2; anti-fortilin mAb or IgG; five washes in Buffer B; western blot; both purified

binding [1]: binds
Substance: recombinant human TGF-β1 (eBioscience) (ligand)

binding [2]: binds
binding [3]: binds
binding [4]: binds
Substance: recombinant human TGF-β1 produced in-house (ligand)

binding [5]: binds
Substance: recombinant human TGF-β2 (ligand)

binding [5]: binds
Substance: recombinant human TGF-β3 (ligand)
